Assay results reported in paper PMC8262884.
No constants are given. Whether binding was seen depends on the method and setting. Binding seen in cells or lysates may run through a third protein. Binding calls can cover weak binding; strength is not graded here. Sequences can lack the tags named with a protein.

Target: TY-tagged phosphoenolpyruvate carboxykinase (TY-PEPCK) (Trypanosoma brucei)
Assay: proximity ligation; Duolink In Situ Red mouse/rabbit kit on PFA-fixed, Triton X-100-permeabilized Δpepck/TY-PEPCK/UGP-MYC.i procyclic cells; rabbit anti-MYC and mouse anti-TY1; cell lines with only one tagged protein as negative controls

B1: MYC-tagged UDP-glucose pyrophosphorylase (UGP-MYC) (enzyme, UniProt D3HTY9 1-485)
chain: MPLNPPSAFSGAALACLEKMQASGVEEKCIHIFLIQHALVRKGETGYIPEKSISPVESLPFLQGIETKGENTALLRQAVVLKLNGGLGTGMGLNGPKSLLQVKNGQTFLDFTALQLEHFRQVRNCNVPFMLMNSFSTSGETKNFLRKYPTLYEVFDSDIELMQNRVPKIRQDNFFPVTYEADPTCEWVPPGHGDVYTVLYSSGKLDYLLGKGYRYMFISNGDNLGATLDVRLLDYMHEKQLGFLMEVCRRTESDKKGGHLAYKDVIDETTGQTRRRFVLRESAQCPKEDEDSFQNIAKHCFFNTNNIWINLMELKKMMDEQLGVLRLPVMRNPKTVNPQDSQSTKVYQLEVAMGAAISLFDRSEAVVVPRERFAPVKTCSDLLALRSDAYQVTEDQRLVLCEERNGKPPAIDLDGEHYKMIDGFEKLVKGGVPSLRQCTSLTVRGLVEFGADVSVRGNVVIKNLKEEPLIIGSGRVLDNEVVVVE
Q: How did the binding turn out when B1 was run?
A: binds weakly
